Series [1] can be described thus: Test for optimum recording power of recording medium formed using the dye. To be noted: 780 nm, linear velocity 1.2 m/s, 450 kHz, CN ratio at least 45 dB, error rate up to 50 cps. Here is the method:
Information was recorded on a photosensitive recording medium formed using each of the cyanine dyes shown below in Table 1 by irradiation of semiconductor laser beams at 780 nm at a recording power of 0.2 mW, a liner velocity of 1.2 m/s and a frequency of 450 kHz and the recorded information was reproduced at a reproducing power of 0.2 mW. The optimum recording power is one at which errors occur at the lowest frequency (CN ratio of at least 45 dB and error rate of up to 50 cps) when the recording is reproduced at varying recording powers of from 2.0 to 8.0 mW and the recorded information was reproduced by irradiation of semiconductor laser beams at 780 nm at a reproducing power of 0.2 mW.

Series [2] is described as follows: Test for reflectivity and absorptivity of dye coating at 780 nm. In kind it is physicochemical. To be noted: coating 600 to 700 Å on acrylic resin plate, semiconductor laser beam at 780 nm. How it is done: Each of cyanine dyes as shown below in Table 1 was dissolved in dichloromethane to a concentration of 20 g/l. The solution was applied to an acrylic resin plate by a spin coater rotated at 1500 rpm to form a layer of 600 to 700 Å thickness, and the coating was dried. The reflectivity and absorptivity of the coating were measured by irradiation of semiconductor laser beam at 780 nm over the coating surface.

Each structure is given as a SMILES string.

Turning to `CCCN1C(=CC=CC=CC2=[N+](CCC)c3cc(C)c(OC)cc3C2(C)C)C(C)(C)c2cc(OC)c(C)cc21` [Preparation Example 6], the Optimum recording power in series [1] was found to be 3.0 mW. Besides, in series [2], the Absorptivity is 13% and the Reflectivity came out at 40%.

Consider `CCCCN1C(=CC=CC=CC2=[N+](CCCC)c3cc(OC)c(OC)cc3C2(C)C)C(C)(C)c2cc(OC)c(OC)cc21` [Preparation Example 12], for which the Optimum recording power in series [1] (listed as Dye of Prep. Ex. 12) is given as 2.6 mW. In series [2] (listed as Dye of Prep. Ex. 12), this compound yielded an Absorptivity of 19% and a Reflectivity of 41%.

For `CCCCN1C(=CC=CC=CC2=[N+](CCCC)c3cc(OC)c(OC)cc3C2(C)C)C(C)(C)c2cc(OC)c(OC)cc21` [Preparation Example 11], the Optimum recording power in series [1] (listed as Dye of Prep. Ex. 11) amounted to 2.8 mW. For the same compound, in series [2] (listed as Dye of Prep. Ex. 11), the Absorptivity came out at 18% and the Reflectivity is recorded as 40%.

Regarding `CCOc1ccc2c(c1)C(C)(C)C(=CC=CC=CC1=[N+](C)c3ccc(OCC)cc3C1(C)C)N2C` [Compound B, reference compound], the Optimum recording power result in series [1] was “at least 6.0 mW”. In series [2], this compound showed an Absorptivity of 7% and a Reflectivity of 40%.

Regarding `CCOc1ccc2c(c1)C(C)(C)C(=CC=CC=CC=CC1=[N+](C)c3ccc(OCC)cc3C1(C)C)N2C` [Compound A, reference compound], in series [1], the Optimum recording power worked out at 3.6 mW. In series [2], the Absorptivity worked out at 58% and the Reflectivity is 24%.

As to `CCN1C(=CC=CC=CC2=[N+](CC)c3c(OC)cc(OC)cc3C2(C)C)C(C)(C)c2cc(OC)cc(OC)c21` [Preparation Example 1], the Optimum recording power in series [1] amounted to 2.7 mW. In addition, in series [2], the Absorptivity is 19% and the Reflectivity stood at 42%.

`COCN1C(=CC=CC=CC2=[N+](COC)c3cc(OC)c(OC)cc3C2(C)C)C(C)(C)c2cc(OC)c(OC)cc21` [Preparation Example 3]: the Optimum recording power in series [1] is given as 2.8 mW. In series [2], this compound came in with an Absorptivity of 18% and a Reflectivity of 41%.

On to `COCCN1C(=CC=CC=CC2=[N+](CCOC)c3c(OC)cc(OC)cc3C2(C)C)C(C)(C)c2cc(OC)cc(OC)c21` [Preparation Example 14], for which the Optimum recording power in series [1] is reported as 2.6 mW. Moreover, in series [2], the Absorptivity came to 18% and the Reflectivity was 41%.

The values above are taken from patent publication US5008401A, “Cyanine compounds” (Asahi Chemical Co., Ltd., priority 1990, dated 1991).
